This is an account of results in paper PMC5484543.

Amino acid sequences for entries named in this document (tags omitted).
UniProt P78527: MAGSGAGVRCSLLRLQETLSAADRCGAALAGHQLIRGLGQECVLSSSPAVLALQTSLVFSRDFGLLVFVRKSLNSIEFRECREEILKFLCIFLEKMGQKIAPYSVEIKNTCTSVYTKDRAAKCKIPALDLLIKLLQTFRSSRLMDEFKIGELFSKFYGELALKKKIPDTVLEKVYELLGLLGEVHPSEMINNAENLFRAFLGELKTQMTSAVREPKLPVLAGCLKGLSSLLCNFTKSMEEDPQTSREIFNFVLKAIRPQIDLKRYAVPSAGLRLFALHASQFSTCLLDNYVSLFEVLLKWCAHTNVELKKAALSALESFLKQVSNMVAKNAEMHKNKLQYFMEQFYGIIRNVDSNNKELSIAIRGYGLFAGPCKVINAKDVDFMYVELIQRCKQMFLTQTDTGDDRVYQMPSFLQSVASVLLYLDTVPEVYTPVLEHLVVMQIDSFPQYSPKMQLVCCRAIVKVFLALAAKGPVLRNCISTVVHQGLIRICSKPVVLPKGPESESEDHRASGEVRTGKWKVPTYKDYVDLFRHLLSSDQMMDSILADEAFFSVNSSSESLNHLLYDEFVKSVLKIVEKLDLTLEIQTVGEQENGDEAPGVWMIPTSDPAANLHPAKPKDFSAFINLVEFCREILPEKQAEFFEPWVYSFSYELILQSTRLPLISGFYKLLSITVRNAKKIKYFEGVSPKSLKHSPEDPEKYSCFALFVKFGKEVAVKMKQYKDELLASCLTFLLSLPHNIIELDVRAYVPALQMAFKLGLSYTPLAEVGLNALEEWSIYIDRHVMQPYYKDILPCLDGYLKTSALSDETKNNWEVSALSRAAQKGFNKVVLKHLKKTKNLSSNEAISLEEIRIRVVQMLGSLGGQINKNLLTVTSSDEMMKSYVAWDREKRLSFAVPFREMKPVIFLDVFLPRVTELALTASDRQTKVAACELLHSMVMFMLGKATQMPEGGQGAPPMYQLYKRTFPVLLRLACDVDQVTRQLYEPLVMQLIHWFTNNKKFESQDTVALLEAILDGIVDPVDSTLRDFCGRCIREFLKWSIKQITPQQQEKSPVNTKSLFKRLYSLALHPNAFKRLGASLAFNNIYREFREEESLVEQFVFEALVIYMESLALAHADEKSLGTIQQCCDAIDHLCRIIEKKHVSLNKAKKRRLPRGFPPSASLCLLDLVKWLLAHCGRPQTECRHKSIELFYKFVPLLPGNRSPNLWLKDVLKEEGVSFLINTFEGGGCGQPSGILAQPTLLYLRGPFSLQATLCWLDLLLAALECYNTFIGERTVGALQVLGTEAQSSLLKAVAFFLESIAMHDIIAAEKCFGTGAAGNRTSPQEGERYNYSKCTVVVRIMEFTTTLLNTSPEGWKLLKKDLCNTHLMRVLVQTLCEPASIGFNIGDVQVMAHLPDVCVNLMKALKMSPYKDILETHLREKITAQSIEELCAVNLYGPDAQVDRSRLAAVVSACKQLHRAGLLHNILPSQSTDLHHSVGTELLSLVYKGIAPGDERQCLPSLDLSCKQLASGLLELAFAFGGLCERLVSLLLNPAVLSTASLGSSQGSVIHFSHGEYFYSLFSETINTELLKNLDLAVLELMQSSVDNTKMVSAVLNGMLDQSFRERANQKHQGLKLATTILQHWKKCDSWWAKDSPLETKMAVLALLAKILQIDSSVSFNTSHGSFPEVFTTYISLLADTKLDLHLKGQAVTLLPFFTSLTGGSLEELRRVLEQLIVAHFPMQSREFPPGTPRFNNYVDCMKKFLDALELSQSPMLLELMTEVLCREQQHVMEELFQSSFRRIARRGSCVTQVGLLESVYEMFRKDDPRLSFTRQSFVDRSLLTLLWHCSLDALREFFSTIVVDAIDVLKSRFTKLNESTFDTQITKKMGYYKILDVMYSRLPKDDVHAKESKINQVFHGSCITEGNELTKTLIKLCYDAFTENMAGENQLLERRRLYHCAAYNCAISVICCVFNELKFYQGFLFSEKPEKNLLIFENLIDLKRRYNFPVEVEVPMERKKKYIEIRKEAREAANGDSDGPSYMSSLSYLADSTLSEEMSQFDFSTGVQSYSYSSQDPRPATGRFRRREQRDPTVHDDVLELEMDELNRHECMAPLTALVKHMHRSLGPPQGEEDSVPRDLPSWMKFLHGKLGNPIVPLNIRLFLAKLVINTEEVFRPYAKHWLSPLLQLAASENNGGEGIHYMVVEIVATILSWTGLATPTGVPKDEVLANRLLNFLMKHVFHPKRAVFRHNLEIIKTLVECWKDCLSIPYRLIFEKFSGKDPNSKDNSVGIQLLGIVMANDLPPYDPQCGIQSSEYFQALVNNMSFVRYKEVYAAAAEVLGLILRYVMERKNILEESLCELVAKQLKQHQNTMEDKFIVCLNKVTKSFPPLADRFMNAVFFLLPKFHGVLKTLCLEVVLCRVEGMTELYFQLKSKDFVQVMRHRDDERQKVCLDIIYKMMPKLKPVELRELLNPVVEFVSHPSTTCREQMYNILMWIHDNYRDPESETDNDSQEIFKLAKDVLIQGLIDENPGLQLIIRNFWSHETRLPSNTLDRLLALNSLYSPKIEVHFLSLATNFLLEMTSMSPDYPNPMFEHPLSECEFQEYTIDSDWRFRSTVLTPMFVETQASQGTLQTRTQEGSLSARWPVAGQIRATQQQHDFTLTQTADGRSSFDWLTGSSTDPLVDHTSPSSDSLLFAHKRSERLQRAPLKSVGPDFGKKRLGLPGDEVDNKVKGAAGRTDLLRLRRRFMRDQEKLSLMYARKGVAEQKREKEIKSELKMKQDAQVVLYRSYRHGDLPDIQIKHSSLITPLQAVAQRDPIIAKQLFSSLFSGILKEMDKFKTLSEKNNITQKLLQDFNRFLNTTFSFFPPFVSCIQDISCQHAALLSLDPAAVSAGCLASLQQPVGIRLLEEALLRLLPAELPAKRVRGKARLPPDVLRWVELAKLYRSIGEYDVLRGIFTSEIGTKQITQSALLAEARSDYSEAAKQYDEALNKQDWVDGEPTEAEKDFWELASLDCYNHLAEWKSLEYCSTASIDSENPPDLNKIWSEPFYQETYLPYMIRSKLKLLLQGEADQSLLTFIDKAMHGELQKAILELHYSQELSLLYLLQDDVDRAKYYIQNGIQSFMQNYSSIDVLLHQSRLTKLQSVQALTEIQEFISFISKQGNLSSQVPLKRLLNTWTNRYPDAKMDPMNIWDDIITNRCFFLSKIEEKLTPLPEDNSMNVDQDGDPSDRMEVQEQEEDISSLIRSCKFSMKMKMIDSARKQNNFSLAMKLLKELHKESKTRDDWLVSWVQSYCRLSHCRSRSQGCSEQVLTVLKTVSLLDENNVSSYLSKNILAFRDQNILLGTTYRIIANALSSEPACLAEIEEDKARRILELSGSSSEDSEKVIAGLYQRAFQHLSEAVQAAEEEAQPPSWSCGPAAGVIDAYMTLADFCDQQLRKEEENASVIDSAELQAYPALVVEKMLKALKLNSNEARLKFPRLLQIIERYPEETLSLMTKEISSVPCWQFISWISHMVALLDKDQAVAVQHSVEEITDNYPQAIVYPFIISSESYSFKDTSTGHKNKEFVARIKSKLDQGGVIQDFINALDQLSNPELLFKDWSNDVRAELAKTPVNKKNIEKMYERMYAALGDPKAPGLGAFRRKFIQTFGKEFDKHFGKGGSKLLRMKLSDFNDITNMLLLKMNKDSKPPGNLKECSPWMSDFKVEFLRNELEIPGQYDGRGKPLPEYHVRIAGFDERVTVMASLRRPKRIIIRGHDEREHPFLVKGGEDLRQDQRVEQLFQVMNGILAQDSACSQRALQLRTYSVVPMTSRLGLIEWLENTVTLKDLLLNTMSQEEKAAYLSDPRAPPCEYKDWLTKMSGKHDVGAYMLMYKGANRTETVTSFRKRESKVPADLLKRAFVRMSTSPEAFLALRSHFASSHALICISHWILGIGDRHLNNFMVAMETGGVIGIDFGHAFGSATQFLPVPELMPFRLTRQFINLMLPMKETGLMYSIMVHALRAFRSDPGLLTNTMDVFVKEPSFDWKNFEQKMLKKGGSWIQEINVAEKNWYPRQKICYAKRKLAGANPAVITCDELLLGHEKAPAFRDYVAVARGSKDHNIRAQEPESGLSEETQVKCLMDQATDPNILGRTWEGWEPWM
UniProt P34931: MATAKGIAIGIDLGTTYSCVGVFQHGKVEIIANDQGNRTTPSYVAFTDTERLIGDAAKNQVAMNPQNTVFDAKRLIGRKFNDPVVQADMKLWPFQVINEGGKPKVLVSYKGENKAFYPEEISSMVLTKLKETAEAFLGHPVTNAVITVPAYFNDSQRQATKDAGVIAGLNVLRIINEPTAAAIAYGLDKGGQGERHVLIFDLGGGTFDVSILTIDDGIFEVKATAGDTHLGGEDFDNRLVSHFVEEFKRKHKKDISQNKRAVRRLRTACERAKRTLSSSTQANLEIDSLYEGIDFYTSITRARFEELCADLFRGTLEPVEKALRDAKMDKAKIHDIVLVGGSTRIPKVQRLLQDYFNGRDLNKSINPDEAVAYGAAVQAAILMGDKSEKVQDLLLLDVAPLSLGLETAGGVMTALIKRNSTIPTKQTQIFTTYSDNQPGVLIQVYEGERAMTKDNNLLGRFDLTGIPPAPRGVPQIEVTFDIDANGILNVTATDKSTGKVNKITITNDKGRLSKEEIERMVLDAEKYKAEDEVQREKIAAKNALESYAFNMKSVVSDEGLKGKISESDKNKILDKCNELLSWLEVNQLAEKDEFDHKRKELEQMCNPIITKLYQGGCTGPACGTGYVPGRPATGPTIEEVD
UniProt Q9H4B7: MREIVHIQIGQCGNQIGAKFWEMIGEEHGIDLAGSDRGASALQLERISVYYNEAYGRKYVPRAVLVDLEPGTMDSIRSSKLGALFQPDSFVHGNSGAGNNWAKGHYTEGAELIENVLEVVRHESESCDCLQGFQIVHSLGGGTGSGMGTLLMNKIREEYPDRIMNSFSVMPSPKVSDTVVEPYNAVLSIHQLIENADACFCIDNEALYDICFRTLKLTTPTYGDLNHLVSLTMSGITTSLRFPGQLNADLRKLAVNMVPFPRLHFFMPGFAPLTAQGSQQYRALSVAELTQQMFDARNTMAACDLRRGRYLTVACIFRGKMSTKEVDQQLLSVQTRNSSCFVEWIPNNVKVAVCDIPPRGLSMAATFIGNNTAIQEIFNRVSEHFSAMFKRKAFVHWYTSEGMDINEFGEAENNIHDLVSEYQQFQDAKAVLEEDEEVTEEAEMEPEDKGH
UniProt P12235: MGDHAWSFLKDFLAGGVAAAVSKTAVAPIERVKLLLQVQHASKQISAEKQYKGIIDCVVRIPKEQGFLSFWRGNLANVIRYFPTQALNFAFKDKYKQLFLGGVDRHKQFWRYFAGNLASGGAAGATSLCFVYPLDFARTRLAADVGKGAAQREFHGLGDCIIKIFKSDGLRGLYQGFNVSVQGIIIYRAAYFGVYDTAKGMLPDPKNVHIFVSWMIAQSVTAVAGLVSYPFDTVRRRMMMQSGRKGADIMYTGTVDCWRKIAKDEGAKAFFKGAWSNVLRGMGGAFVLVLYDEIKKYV
UniProt P09874: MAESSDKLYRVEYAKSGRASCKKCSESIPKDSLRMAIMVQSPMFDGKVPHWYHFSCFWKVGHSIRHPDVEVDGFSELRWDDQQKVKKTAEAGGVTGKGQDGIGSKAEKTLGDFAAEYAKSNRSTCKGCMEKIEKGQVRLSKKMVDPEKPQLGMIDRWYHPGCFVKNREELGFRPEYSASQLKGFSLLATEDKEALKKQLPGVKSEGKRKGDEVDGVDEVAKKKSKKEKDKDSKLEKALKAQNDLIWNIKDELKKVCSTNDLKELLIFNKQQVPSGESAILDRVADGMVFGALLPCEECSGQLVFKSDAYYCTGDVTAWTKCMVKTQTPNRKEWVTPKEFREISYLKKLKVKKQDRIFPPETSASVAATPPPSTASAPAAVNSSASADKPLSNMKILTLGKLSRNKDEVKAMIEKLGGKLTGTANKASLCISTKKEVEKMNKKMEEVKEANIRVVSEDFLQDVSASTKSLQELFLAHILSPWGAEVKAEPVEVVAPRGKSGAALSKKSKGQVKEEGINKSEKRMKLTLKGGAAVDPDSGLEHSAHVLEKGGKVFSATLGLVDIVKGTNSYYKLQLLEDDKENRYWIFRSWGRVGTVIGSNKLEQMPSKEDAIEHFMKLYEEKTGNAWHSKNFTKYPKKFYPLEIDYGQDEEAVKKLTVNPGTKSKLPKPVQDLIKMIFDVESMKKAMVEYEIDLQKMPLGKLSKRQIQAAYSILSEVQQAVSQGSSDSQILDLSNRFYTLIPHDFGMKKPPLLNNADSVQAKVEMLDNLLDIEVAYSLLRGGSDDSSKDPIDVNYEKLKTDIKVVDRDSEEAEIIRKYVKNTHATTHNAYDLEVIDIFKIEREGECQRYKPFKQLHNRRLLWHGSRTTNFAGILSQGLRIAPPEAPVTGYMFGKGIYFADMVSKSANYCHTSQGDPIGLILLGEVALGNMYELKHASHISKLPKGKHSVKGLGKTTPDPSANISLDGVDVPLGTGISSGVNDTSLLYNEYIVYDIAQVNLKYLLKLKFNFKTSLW

No constants are given. Whether binding was seen depends on the method and setting. In cells and extracts the contact can be indirect. These calls come from enrichment with a bait or labelling near it, and not all partners need be listed. Tags and fused reporters may be left off the sequences shown.

This test addresses T1, 3xFLAG-B12 (UniProt Q9NXW2).
T1 sequence: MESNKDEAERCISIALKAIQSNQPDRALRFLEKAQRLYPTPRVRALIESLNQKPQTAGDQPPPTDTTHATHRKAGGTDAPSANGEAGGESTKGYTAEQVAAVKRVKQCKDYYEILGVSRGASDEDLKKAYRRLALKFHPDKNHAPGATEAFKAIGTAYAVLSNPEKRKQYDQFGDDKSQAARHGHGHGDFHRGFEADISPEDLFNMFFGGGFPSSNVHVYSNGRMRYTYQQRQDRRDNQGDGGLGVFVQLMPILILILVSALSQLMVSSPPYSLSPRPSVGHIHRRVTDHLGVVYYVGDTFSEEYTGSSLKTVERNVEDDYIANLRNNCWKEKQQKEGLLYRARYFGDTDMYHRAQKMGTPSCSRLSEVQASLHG
Kind of test: affinity purification with mass spectrometry; 3xFLAG-B12 stable Flp-In 293 T-REx cells; digitonin-permeabilised, pellet lysed in 50 mM Hepes pH 7.5, 150 mM NaCl, 1% deoxy Big CHAP; anti-FLAG M2 antibody and Protein G magnetic beads, 4°C; eluted with 3xFLAG peptide; shot gun mass spectrometry; parental cells as control.
In the case of ATP2A1 (from UniProt O14983 1-1001), the binding result is “binds”.

On to CAD (from UniProt P27708 1-2225), for which the binding entry is reported as “binds”. Regarding ATAD3A (from UniProt Q9NVI7-1), the binding result is given as “binds”. With COPA (from UniProt P53621 1-1224), the binding result was “binds”. For PRKDC (from UniProt P78527 1-4128) the value was “binds”.

Regarding EEF1A1 (from UniProt P68104 1-462), the binding entry is “binds”. The value for GCN1L1 (from UniProt Q92616 1-2671) was “binds”; that for HSPA1L (from UniProt P34931 1-641) was “binds”. Hsc70 (from UniProt P11142 1-646): the binding entry is on record as “binds”. For TUBB1 (from UniProt Q9H4B7 1-451) the value was “binds”; for TUBB (from UniProt P07437 1-444), “binds”. For CANX (from UniProt P27824 21-592) the value was “binds”. The value for SLC25A4 (from UniProt P12235 1-298) was “binds”; that for NUP210 (from UniProt Q8TEM1 27-1887) was “binds”; that for TRIM21 (from UniProt P19474 1-475) was “binds”. As for ATP5B (from UniProt P06576 48-529), the binding entry was “binds”. Take TUBB3 (from UniProt Q13509 1-450): the binding entry is reported as “binds”. For HSPA9 (from UniProt P38646 47-679) the value was “binds”; for ATP5A1 (from UniProt P25705 44-553), “binds”. For BAG2 (from UniProt O95816 1-211), the binding result is “binds”.

As for PARP1 (from UniProt P09874 1-1014), the binding result was “binds”. For STK38 (from UniProt Q15208 1-465) the value was “binds”. For ITPR3 (from UniProt Q14573 1-2671) the value was “binds”; for TUBB4A (from UniProt P04350 1-444), “binds”. For the substance VCP (from UniProt P55072 1-806), the binding entry was “binds”. For the substance MAP1B (from UniProt P46821 1-2468), the binding result was “binds”. The value for TUBB2A (from UniProt Q13885 1-445) was “binds”; that for COPB1 (from UniProt P53618 1-953) was “binds”; that for MDN1 (from UniProt Q9NU22 1-5596) was “binds”. The value for AIFM1 (from UniProt O95831) was “binds”.
